One substance from article PMC4219786, “Glycan Dependence of Galectin-3 Self-Association Properties” (PLoS ONE, 2014) can be followed below.

Sequences of proteins named here, by UniProt entry; tags and fusion partners are left off. Residues count along the entry.
human Galectin-3 N-terminal domain (13-113) (P17931, residues 13-113): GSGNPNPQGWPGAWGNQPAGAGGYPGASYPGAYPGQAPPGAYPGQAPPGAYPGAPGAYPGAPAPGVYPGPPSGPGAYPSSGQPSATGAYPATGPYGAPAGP
human Galectin-3 Carbohydrate Recognition Domain (114-250) (P17931, residues 114-250): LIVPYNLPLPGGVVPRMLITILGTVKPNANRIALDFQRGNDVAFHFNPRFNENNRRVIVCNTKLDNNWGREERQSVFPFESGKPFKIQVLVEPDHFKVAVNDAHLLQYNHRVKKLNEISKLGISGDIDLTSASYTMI

In the assay the target is human Galectin-3 Carbohydrate Recognition Domain (114-250) (human) (UniProt P17931). Description: NMR chemical shift mapping (1H-15N HSQC spectra compared); spectra of free 15N CRD (40 µM) and free 15N N-terminal domain (30 µM) compared with 15N full length Galectin-3 (30 µM); the two domains on one chain in FL; 5 mM potassium phosphate pH 7.4; both purified.

No constants are given. Whether binding was seen depends on the method and setting. Some binding calls cover weakened binding; strength is not graded here.

In the case of “human Galectin-3 N-terminal domain (13-113) (from UniProt P17931 13-113) (domain or fragment)”, the binding result is listed as “binds”.
